{"source": "paper doi:10.1101/2024.02.27.582283", "binders": {"B1": {"name": "SET-26 N-terminal fragment (residues 1-575) (domain or fragment, UniProt Q9U263 1-575)", "chain": "MADGEHTLPADEELFEQPPLQQQQPEIAEPIVMAQEPIQGVSEDPQASEATHEAPDNYPVDHQMENQEFYQEPQIPEPQQIPQIPVFQPAAYNPPNYVAPQQRANNFGEPAAAADSRPLTEEEQLAAERPTEDTVWIDSDDDTDVEEAILRANFWLPYSDHNYDPPDPADRIILPTEGPFPCIAGLDEDCNIVKQWMPEDAVGPGSPGTQYRRNQQTGGGLPSTSVAPQQQQLPVRHNIQNRPMVAAQPFSIGGNQVEYGGIGGMDSRMQQRGVVRDGPQYRVMNDFGNGLPMRGQLPPRNSPAANAINRVREQQQQMYHQAGARGSLQQRVPAPAAPTPGSYQHIVNAVPVGGANPMRRVPPQARPGMIGGAANNNRARPIHVTRPMDTQEFEHPVAPAAAAPPRRVVDVAPHRMTPEQRQELQQMNRQRAAPQFPAAAAQRSAEKIVIQQRPGASSSRAPRPSMAQEDLLRSPTRRLSERVPQEHQTPVLEPRRFQVKVTDTYSTPIPKASDQLPAQLTEEDPPEESAAAAAPEDVPDAAPEDPPKGILKPTPPHRMTQEEKNAHFARLTTDK"}}, "target": "T1, ULP-2 N-terminal domain (Gal4-DB::ULP-2 bait, first 5 coding exons, bp 4-771) (C. elegans) (UniProt Q23238)", "T1 sequence": "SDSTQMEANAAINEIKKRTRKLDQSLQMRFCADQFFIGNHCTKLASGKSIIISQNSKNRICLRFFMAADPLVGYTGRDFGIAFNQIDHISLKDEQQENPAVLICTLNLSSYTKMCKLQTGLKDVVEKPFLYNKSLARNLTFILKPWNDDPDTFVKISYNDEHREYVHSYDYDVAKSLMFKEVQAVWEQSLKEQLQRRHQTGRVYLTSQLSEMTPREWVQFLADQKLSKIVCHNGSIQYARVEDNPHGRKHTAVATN", "experiment": "two-hybrid", "note": "These are yes or no findings as the source states them, for the method shown. Some entries that bind do so weakly or less than the wild type.", "data": [{"binder": "B1", "values": [{"measurement": "binding", "value": "binds"}]}]}
